3 substances from article PMC6063412 can be followed below.

Amino acid sequences for entries named in this document (tags omitted). A change or cut given only in a name is not applied to a line headed by its entry.
UniProt P16234: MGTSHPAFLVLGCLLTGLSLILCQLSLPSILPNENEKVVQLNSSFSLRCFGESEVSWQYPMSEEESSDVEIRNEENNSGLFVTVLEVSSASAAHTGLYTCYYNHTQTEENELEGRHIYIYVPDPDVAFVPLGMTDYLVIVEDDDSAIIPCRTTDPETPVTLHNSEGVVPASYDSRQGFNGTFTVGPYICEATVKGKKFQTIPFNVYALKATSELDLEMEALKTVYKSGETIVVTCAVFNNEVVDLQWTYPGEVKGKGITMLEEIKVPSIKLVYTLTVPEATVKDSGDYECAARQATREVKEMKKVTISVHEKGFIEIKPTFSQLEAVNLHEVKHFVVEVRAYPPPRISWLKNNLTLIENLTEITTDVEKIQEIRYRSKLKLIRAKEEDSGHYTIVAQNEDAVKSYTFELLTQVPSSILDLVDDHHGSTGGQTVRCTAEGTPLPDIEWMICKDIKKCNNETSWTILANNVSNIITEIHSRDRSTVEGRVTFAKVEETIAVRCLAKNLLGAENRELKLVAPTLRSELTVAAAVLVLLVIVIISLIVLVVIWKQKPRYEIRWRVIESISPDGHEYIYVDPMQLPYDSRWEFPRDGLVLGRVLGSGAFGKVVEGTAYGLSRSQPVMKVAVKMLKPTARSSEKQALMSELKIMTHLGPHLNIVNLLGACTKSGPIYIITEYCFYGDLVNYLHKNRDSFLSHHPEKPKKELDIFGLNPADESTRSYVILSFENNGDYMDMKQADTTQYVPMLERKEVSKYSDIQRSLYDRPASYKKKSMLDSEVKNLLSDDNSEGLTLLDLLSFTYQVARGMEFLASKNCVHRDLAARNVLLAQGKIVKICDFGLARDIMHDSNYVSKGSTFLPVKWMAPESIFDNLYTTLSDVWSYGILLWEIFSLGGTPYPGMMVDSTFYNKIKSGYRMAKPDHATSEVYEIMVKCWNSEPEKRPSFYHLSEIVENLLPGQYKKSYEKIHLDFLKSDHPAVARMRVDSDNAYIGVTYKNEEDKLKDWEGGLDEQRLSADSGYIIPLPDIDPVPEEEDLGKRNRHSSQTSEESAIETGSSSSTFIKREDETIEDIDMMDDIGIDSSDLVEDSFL

Results are given in words; binding and its absence hold for the method and conditions named. A result given as binding can be weak or reduced; the word gives no strength.

The assay has as its target recombinant PDGFRα protein (UniProt P16234). The experiment in a line: ELISA; 96-well plate coated with recombinant PDGFRα protein (1 μg/ml in 100 mM NaHCO3, 4°C overnight); PDGF ligands applied; quality control of the ligands; both purified.
On to PDGF-AA (from UniProt P04085) (ligand), for which the binding entry was “binds”.

Consider PDGF-BB (from UniProt P01127) (ligand), for which the binding entry is given as “binds”.

For “recombinant human PDGF-CC core domain protein (activated PDGF-CC, growth factor domain) (from UniProt Q9NRA1) (ligand)”, the binding entry is given as “binds”.
